Test results as given in publication PMC5892894.
These are yes or no findings as the source states them, for the method shown. Binding calls can cover weak binding; strength is not graded here. Where a sequence is shown, tags or fusion partners need not be part of it. Values belong to the molecule of their own block, whether it stands above or below them.

How the values were obtained:
[1] = target: T1, FlaA2, bacterial two-hybrid fusion (L. biflexa) (UniProt B0SKT5); test: two-hybrid; BacterioMatch II bacterial two-hybrid in E. coli XL1-Blue MRF′; bait in pBT, prey in pTRG; growth on M9 medium with 5 mM 3-AT and then 3-AT plus streptomycin
T1 sequence: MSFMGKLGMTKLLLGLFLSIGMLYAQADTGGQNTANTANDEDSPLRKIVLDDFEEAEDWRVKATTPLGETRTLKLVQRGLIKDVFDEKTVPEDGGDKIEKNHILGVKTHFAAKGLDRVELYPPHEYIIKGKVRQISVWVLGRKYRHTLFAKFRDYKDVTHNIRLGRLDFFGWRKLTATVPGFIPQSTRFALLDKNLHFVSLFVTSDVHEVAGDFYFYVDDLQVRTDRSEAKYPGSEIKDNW

[2] = target: FcpA, bacterial two-hybrid fusion (L. biflexa); test: as above

binding [1]: binds
Molecule: FcpA, bacterial two-hybrid fusion (L. biflexa)

binding [2]: binds
B1: FlaA2 aa155-238 region, bacterial two-hybrid fusion (domain or fragment, UniProt B0SKT5 155-238)
chain: YKDVTHNIRLGRLDFFGWRKLTATVPGFIPQSTRFALLDKNLHFVSLFVTSDVHEVAGDFYFYVDDLQVRTDRSEAKYPGSEIK

binding [2]: binds
B2: FlaA2, bacterial two-hybrid fusion (protein, UniProt B0SKT5 1-241)
chain: T1 sequence
